Most values lie at the floor of the assay. Slopes are relative: functional sequences can read slightly below zero.
These substances were tested on Saccharomyces cerevisiae PS128 hsf1 delta, HSF1(1-493) fusion (assay: growth estimate (transactivation domain function in HSF1 fusion, heat-shock survival) (a.u. (slope of normalised read count over time)); higher = stronger growth at 37°C, i.e. more transactivation activity). Conditions: library: random library.

Substance | growth estimate
RRGIERAYLWERVWPLFGFF | < -0.25
GGFRGYGSFR | -0.25
KEGVVLPVSTLALLHSIWLF | < -0.25
CRGFDGKRMTDVPVWVLLRK | < -0.25
SRDRRWVRTNSLHPGLVAYA | < -0.25
RAN | < -0.25
WVAIGVTRWVHVHFGLCLTR | < -0.25
DLTWWYGSSYPHGVIAASAT | < -0.25
TKVYGCESLVTGCHFSPRPL | < -0.25
QGVDTSRGGGIPYNIPTYDR | < -0.25
RRVDRFCLMVSCCVMGLRAA | < -0.25
SPEVSQESNL | < -0.25
QHRLEPITSRAILGNNYSRE | < -0.25
GKLDAVGINKR | < -0.25
PSCSLVLIRIAFDRGLNILH | < -0.25
RFCVCLASMVSTSVTLQAVG | < -0.25
DHDGRYTSHVRAIIERY | < -0.25
ITVTRELHTKRWLMGRAALA | < -0.25
VVNGPVNTPQLTTAHPCFRQ | < -0.25
LRDWRPLPRRDY | < -0.25
DGSFTRGRGCRRP | < -0.25
HWYTNWF | -0.103
GLLHFRG | < -0.25

Four entries from above, field by field:
QGVDTSRGGGIPYNIPTYDR
  growth estimate = < -0.25
RRVDRFCLMVSCCVMGLRAA
  growth estimate = < -0.25
SPEVSQESNL
  growth estimate = < -0.25
QHRLEPITSRAILGNNYSRE
  growth estimate = < -0.25

(further entries)

Substance | growth estimate
IPRLYVLCFCNHYSHTVHWS | < -0.25
GLTVRRRLYLRSHEGGLLPG | < -0.25
NRY | -0.245
RISRCFIARS | < -0.25
KRGDSRSS | < -0.25
GPIWWYSDRGPSLEPFHPLD | -0.161
VRDISWCRLIDEVNDLRNGN | < -0.25
IGSGRGPHPSMGVGVKDQA | < -0.25
ISDGVRLVAGFMVTYLVAPF | < -0.25
VGTRNLSHVLLR | < -0.25
HHDVVCFRHKEIKMTVSSSR | < -0.25
QFPDKKVTAGTHLVIPQPGG | < -0.25
VPIPIRDRMVAISLMRVLGM | < -0.25
HRTVGAVEQIVLALNPH | < -0.25
HTRQ | < -0.25
WSEGQSFPR | < -0.25
SVAAELCRCMPPVNLPILVR | < -0.25
IHAGCVS | < -0.25
ISGRHSV | < -0.25
SETTYSAERTQF | < -0.25
GCNLGTMSSTSCRVLCINEP | < -0.25
ARIRD | < -0.25
LLILDGRVVWSAPTVKVFAV | < -0.25

Substance | growth estimate
PSRYRKSNSVECQLTQEGWT | < -0.25
RTSVTC | < -0.25
LLPSMGERKSVGLLTILDWP | < -0.25
YGPYTVLLLYPVKRLRESMG | < -0.25
RRGDFDLTTN | < -0.25
SILQHWKTVQAVPLDPHRQP | < -0.25
NSAGHLLAR | < -0.25
LQSADYRIGNLCPRSTVGHK | < -0.25
DICHAFVQTRWKI | < -0.25
SAVVSGSGHTAMSGSRILTQ | < -0.25
LEQLGLRGRSR | < -0.25
RWKLYETSLSSCVE | < -0.25
RHVVIASLLRLTGILVGV | < -0.25
KAGSYSCEQSREIVAAGNRS | < -0.25
TRPVRIVLLKG | < -0.25
ILPSGMLEFEQPLTSITDSC | < -0.25
TLMREITLSIGGRTMVSMCP | < -0.25
YPPTRWEFRTCSNVIAYRSR | < -0.25
DVQSTS | < -0.25
SRPILKRVRNFSLVGNRSRE | < -0.25
KYPSPVVENILCVLPQHLVD | < -0.25
GSLRCALTSFKTVTHSRS | < -0.25
LTGVPILHRLVH | < -0.25

Substance | growth estimate
DSECEGVCCMAISPGDIVHE | < -0.25
SICVA | < -0.25
WSVICGRTPKFRPGS | < -0.25
RLSGTSLNPSNTCEYGFQGV | < -0.25
IVWLQRGISCHMTSFPAK | < -0.25
VVLTLSLL | < -0.25
WGLTFTTKFEAIWSSGA | < -0.25
LLLGPLEVAR | < -0.25
SIVQSPFISSYVSRGI | < -0.25
LKRYCSPGGLGRNSTIMIVM | < -0.25
ALCCQEGHGQRC | < -0.25
VLKGSGYSPRFEGQVELAGV | < -0.25
ICRCPGRDSVIKSRLSYSPT | < -0.25
SSFSATSN | < -0.25
TRWPDSFRYRLVGRIQPRRY | < -0.25
SGTCAKRLTG | < -0.25
ATVVDPYGAWISHGITFSVG | < -0.25
SSKDKNSQLMQPKENSEQRR | < -0.25
TGLHSCSM | < -0.25
QVGKSVEVYGGVGIHEVCHP | < -0.25
AGSKRIQPAVSDKIHFVKSR | < -0.25
RKWGQVRADSSQTVRPRFIR | < -0.25
YTRCYLQHY | < -0.25

Substance | growth estimate
ESAADLWINYV | < -0.25
RSYRTLVKGNGGPLGT | < -0.25
TGRLRCISGGEKERA | -0.112
AGTYRLRGDRP | < -0.25
AVRVPG | < -0.25
ISYERLPTSVP | < -0.25
LME | < -0.25
ASPWSAR | < -0.25
LGSLSGAAKPSLRIKVARIP | < -0.25
IFVLPTDVCRICEFAHYDCL | < -0.25
LLLGFLRSYWCHTTVHRTRR | < -0.25
FGTYDMRRVVDNAYESLV | < -0.25
LDTTPLRAPVCHGMDPVCYG | < -0.25
WLHETLVRAPAVPTLTRGPS | < -0.25
KSCWC | < -0.25
IRFDARYKGALDDIIHHLSE | < -0.25
AGFSRSPRVLD | < -0.25
RSVFA | -0.243
AVALVSMRGKKIPDSQHLGR | < -0.25
KSLVCRTAISIRESTCMCSS | < -0.25
VATGLGGRSQVWREPLITGK | < -0.25
KEMHGAGATRELLSVSRDPI | < -0.25
RNKPETQATAMERHCRTEYV | < -0.25

Pulled one by one from above, 4 records:
Substance | growth estimate
GLTVRRRLYLRSHEGGLLPG | < -0.25
NRY | -0.245
GGFRGYGSFR | -0.25
RNKPETQATAMERHCRTEYV | < -0.25

Carrying on.

Substance | growth estimate
EASEESTKSATLS | < -0.25
ICRFHKVGTVNSHRALHKEG | < -0.25
PETACELRMQATCTG | < -0.25
AVGKE | < -0.25
RGGTLFDKPLLTGLRPCLGW | < -0.25
HRPLCTDMLRAAQTTLHVCL | < -0.25
SRRLLLMSWPRPVAVWAPAS | < -0.25
YAVM | < -0.25
IQVHYVRVRTIETKTYGCFR | < -0.25
VCHLDGCLVLNQVPRVDSKP | < -0.25
VTGVWERK | < -0.25
LTSACSSYVFFSGPAMPITA | < -0.25
RVCHDFNLTAFVLRHCCEKG | < -0.25
TVTLPTWLKIEYG | < -0.25
TAEGKRTVRVIESWTQKSRD | < -0.25
SDKCIIPTLPYGL | < -0.25
AGVSWRRAEWSETKTLASHA | < -0.25
WESGQSAPYENGSPLNVVTY | < -0.25
EAPSP | < -0.25
IGGGQASPYSVCKSHVLMVT | < -0.25
RGTR | < -0.25
TPVLGH | -0.245
GVLHPHSILVGRSSIVRDVA | < -0.25

Substance | growth estimate
KLPEAASFRRGHHVWE | < -0.25
IEVNGLGRTSRGRTITVDWP | < -0.25
SQRHTPTYWNRRSRRHAPFP | < -0.25
GRGG | < -0.25
CVQKACAMALR | < -0.25
GSSSSCCLRQVILYLPTTFL | < -0.25
ELPYN | < -0.25
KNIDAAWRLLAKANANGNRP | < -0.25
ATQGPIAVSE | < -0.25
CQP | < -0.25
SRYLIGTAQLPFTTLK | < -0.25
QRGMFKGGPDHH | < -0.25
EALCLKENPGLMSQKTRTAR | < -0.25
RRLSVNQRETPVRIIG | < -0.25
HSALRTGWFIQKMEAVIYIA | < -0.25
CGSTLAVTQA | < -0.25
AEPTCGK | -0.243
ALLMGGVYERWVTYVCQLTP | -0.235

From the supplement of paper PMC5949888
